System: SH-SY5Y cells
Experiment: SH-SY5Y neuroblastoma cell toxicity
Format: cell-based, human
Details: 10–100 μM, 48 h incubation, MTT

COc1cc2c(cc1OC)C(=O)C(CC1CCN(Cc3ccccc3)CC1)C2 (stereo not shown) [Donepezil, reference compound]
neurotoxicity / cytotoxicity on SH-SY5Y cells: no cytotoxicity

— paper PMC10976477 (RSC Advances, 2024)
